# PubChem BioAssay AID504764, Drosophila RNAi Screening Center – 2011
# Purpose: 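Knock-downs that raise or lower a Notch target reporter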 (primary screen)
# Cells: Drosophila Kc167 cells
# Reagent: long dsRNA against Drosophila genes
# Time to read-out: about 5 days (4 days dsRNA, then 24 h after transfection)
# Challenge: transfection of constitutively active membrane-tethered Notch lacking the extracellular domain, read 24 h later
# Measured: 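Firefly luciferase from an E(spl)m3 reporter with active Notch, plus control-promoter and uninduced reporter wells for normalisation; unnormalised counts, duplicate wells a and b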
# Scale: induced reporter light, run 1, well a and induced reporter light, run 1, well b: higher = more light from the Notch target reporter with active Notch; control promoter light, run 1, well a and control promoter light, run 1, well b: higher = more light from the viral control promoter (cell number, transfection, viability); uninduced reporter light, run 1, well a: higher = more light from the Notch target reporter without active Notch
# Rule for the call: 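Wells with low control signal or poorly matching duplicates excluded; duplicates averaged; per source plate, z beyond ±2 for induced/control log2 ratio or beyond ±1.8 for induced/uninduced marks a hit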
# Calls: active = modifier hit (raised or lowered Notch signal); inactive = not a hit
# The screen tested about 22,000 reagents; below is a random part of those that have a named target and a result. Of all reagents, 403 (1.9%) were called active. 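Unnormalised raw counts per well; ratio z-scores behind the hit calls and whether each hit raises or lowers signal are not deposited.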 A plus sign joins genes that one reagent is predicted to hit. Not stated in the record: the amount of reagent.
gene knocked down,DRSC id,"induced reporter light, run 1, well a","induced reporter light, run 1, well b","control promoter light, run 1, well a","control promoter light, run 1, well b","uninduced reporter light, run 1, well a",call
eEF1alpha2,DRSC14079,83540,1.04e5,1.26e5,1.11e5,6560,inactive
eEF1alpha2,DRSC16658,73285,66020,1.09e5,1.21e5,5785,inactive
CG14212,DRSC19568,68445,77760,80870,1.00e5,9875,inactive
CG10479,DRSC09733,83715,81870,33870,13060,10805,inactive
MED1,DRSC11808,89745,1.02e5,65300,69870,8410,inactive
tyf,DRSC18382,1.18e5,1.39e5,1.86e5,2.24e5,11410,inactive
Alh,DRSC12447,2735,2488,2115,1675,2155,inactive
Alh,DRSC12487,34055,36230,27305,38475,4285,inactive
Alh,DRSC12488,70555,87650,58925,50775,5350,inactive
apn,DRSC15124,2.33e5,2.82e5,2.20e5,2.36e5,19832,inactive
Glys,DRSC16130,1.32e5,1.53e5,1.04e5,1.02e5,9942,inactive
bs,DRSC04676,2.07e5,2.12e5,1.96e5,1.89e5,15110,inactive
CG13088,DRSC02192,1.31e5,1.49e5,78525,1.18e5,15840,inactive
Argl + CG9515,DRSC03243,2.84e5,2.95e5,3.13e5,3.17e5,26545,inactive
Argl + CG9515,DRSC03245,90900,1.17e5,81490,1.02e5,17550,inactive
Atf-2,DRSC04130,2.07e5,2.20e5,1.87e5,1.72e5,14795,inactive
Atf-2,DRSC04413,2.02e5,1.89e5,3.16e5,3.02e5,12465,inactive
Cdk4,DRSC07358,98935,1.14e5,1.84e5,1.81e5,8000,inactive
CG6707,DRSC10697,1.56e5,1.04e5,1.50e5,1.40e5,7610,inactive
Obp58d,DRSC04162,1.94e5,1.66e5,1.49e5,1.65e5,12955,inactive

Laid out differently: results already given.
{"gene knocked down":"CG13088","DRSC id":"DRSC02192","induced reporter light, run 1, well a":1.31e5,"induced reporter light, run 1, well b":1.49e5,"control promoter light, run 1, well a":78525,"control promoter light, run 1, well b":1.18e5,"uninduced reporter light, run 1, well a":15840,"call":"inactive"}
{"gene knocked down":"Argl + CG9515","DRSC id":"DRSC03243","induced reporter light, run 1, well a":2.84e5,"induced reporter light, run 1, well b":2.95e5,"control promoter light, run 1, well a":3.13e5,"control promoter light, run 1, well b":3.17e5,"uninduced reporter light, run 1, well a":26545,"call":"inactive"}
{"gene knocked down":"Argl + CG9515","DRSC id":"DRSC03245","induced reporter light, run 1, well a":90900,"induced reporter light, run 1, well b":1.17e5,"control promoter light, run 1, well a":81490,"control promoter light, run 1, well b":1.02e5,"uninduced reporter light, run 1, well a":17550,"call":"inactive"}
{"gene knocked down":"Atf-2","DRSC id":"DRSC04130","induced reporter light, run 1, well a":2.07e5,"induced reporter light, run 1, well b":2.20e5,"control promoter light, run 1, well a":1.87e5,"control promoter light, run 1, well b":1.72e5,"uninduced reporter light, run 1, well a":14795,"call":"inactive"}

More reagents:
gene knocked down,DRSC id,"induced reporter light, run 1, well a","induced reporter light, run 1, well b","control promoter light, run 1, well a","control promoter light, run 1, well b","uninduced reporter light, run 1, well a",call
Prosalpha4T2,DRSC04643,1.61e5,1.52e5,1.47e5,1.43e5,9755,inactive
CG4743,DRSC15636,1.49e5,1.47e5,2.06e5,1.76e5,11800,inactive
Rh4 + sina,DRSC11396,1.34e5,1.57e5,78520,1.05e5,11555,inactive
CG33792,DRSC05355,1.14e5,1.06e5,1.91e5,2.61e5,9542,inactive
PXo,DRSC09734,91980,69970,80265,25840,9015,inactive
CG3987,DRSC15531,1.44e5,1.40e5,1.06e5,97795,10192,inactive
CG6724,DRSC02983,99520,1.16e5,68650,89685,15140,inactive
hoka,DRSC08313,1.82e5,1.65e5,2.33e5,2.23e5,12150,inactive
TotE,DRSC21355,,,,,,inactive
Pitslre,DRSC11874,99780,1.29e5,73515,60400,5535,inactive
Tektin-C,DRSC09741,1.59e5,1.50e5,2.15e5,1.95e5,8055,inactive
CG18131,DRSC00517,25070,22990,20665,19180,5750,inactive
clumsy,DRSC03111,62500,50510,52235,68930,3015,inactive
CG9988,DRSC16587,1.53e5,1.23e5,2.14e5,1.97e5,12690,inactive
CG4592,DRSC02761,2.28e5,2.07e5,1.67e5,1.39e5,16400,inactive
CG32488,DRSC08549,1.99e5,1.84e5,3.20e5,2.88e5,14200,inactive
Phlpp,DRSC02065,44235,36790,42445,35400,1685,inactive
TbCMF46,DRSC02221,1.46e5,1.94e5,80120,1.22e5,19640,inactive
ACOX1,DRSC05941,92180,93670,1.41e5,1.88e5,7780,inactive
CG13675,DRSC08908,68670,59785,45450,54945,7380,inactive
CG13675,DRSC10034,15285,14990,12585,10535,6295,inactive
CG14565,DRSC11726,1.42e5,1.25e5,1.29e5,1.25e5,10380,inactive
CG6937 + btn,DRSC16917,2.08e5,1.48e5,1.97e5,1.88e5,15950,inactive
CG6610,DRSC10674,2.61e5,2.57e5,2.46e5,2.97e5,11145,inactive
bnk,DRSC16912,92045,90325,1.45e5,1.38e5,9270,inactive
Hexim,DRSC15490,1.23e5,1.01e5,85240,71500,9265,inactive
unpg,DRSC07713,1.63e5,1.78e5,2.31e5,2.03e5,14825,inactive
CG6044,DRSC04522,1.90e5,2.14e5,2.07e5,1.80e5,17600,inactive
Jon65Aii,DRSC10665,1.73e5,1.56e5,1.63e5,1.53e5,3835,active
CG4390,DRSC15572,1.65e5,1.65e5,1.56e5,1.80e5,14760,inactive
